Assay [1] deals with T1, endogenous Cdh7 of chick embryonic spinal cord (chick (endogenous in HH st. 17 chick embryo)) (UniProt Q90763).
T1 sequence: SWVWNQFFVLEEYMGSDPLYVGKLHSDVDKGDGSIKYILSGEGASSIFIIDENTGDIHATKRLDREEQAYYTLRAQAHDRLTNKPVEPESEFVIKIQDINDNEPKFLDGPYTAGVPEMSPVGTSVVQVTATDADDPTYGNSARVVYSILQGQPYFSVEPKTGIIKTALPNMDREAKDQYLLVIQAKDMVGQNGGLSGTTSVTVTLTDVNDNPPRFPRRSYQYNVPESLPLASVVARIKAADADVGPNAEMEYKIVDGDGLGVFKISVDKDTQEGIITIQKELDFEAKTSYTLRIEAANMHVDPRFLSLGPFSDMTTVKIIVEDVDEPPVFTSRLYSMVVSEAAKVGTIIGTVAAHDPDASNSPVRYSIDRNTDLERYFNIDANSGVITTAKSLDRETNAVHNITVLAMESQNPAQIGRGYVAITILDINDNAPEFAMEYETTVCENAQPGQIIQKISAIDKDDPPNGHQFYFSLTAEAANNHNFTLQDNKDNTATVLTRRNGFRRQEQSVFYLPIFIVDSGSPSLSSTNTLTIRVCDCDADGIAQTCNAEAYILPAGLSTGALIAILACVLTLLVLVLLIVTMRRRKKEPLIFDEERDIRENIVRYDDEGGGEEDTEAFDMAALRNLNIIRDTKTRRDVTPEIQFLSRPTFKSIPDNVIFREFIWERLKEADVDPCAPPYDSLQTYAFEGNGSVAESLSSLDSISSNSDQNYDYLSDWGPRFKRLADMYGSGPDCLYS
The assay can be described thus: co-IP; endogenous proteins in HH st. 17 chick embryo spinal cord lysates; immunoprecipitation with anti-Shh, anti-Cdh7 or anti-Ncdh mAbs.

Chains of the proteins cited; added tags and fusions are not shown.
UniProt Q9IA31: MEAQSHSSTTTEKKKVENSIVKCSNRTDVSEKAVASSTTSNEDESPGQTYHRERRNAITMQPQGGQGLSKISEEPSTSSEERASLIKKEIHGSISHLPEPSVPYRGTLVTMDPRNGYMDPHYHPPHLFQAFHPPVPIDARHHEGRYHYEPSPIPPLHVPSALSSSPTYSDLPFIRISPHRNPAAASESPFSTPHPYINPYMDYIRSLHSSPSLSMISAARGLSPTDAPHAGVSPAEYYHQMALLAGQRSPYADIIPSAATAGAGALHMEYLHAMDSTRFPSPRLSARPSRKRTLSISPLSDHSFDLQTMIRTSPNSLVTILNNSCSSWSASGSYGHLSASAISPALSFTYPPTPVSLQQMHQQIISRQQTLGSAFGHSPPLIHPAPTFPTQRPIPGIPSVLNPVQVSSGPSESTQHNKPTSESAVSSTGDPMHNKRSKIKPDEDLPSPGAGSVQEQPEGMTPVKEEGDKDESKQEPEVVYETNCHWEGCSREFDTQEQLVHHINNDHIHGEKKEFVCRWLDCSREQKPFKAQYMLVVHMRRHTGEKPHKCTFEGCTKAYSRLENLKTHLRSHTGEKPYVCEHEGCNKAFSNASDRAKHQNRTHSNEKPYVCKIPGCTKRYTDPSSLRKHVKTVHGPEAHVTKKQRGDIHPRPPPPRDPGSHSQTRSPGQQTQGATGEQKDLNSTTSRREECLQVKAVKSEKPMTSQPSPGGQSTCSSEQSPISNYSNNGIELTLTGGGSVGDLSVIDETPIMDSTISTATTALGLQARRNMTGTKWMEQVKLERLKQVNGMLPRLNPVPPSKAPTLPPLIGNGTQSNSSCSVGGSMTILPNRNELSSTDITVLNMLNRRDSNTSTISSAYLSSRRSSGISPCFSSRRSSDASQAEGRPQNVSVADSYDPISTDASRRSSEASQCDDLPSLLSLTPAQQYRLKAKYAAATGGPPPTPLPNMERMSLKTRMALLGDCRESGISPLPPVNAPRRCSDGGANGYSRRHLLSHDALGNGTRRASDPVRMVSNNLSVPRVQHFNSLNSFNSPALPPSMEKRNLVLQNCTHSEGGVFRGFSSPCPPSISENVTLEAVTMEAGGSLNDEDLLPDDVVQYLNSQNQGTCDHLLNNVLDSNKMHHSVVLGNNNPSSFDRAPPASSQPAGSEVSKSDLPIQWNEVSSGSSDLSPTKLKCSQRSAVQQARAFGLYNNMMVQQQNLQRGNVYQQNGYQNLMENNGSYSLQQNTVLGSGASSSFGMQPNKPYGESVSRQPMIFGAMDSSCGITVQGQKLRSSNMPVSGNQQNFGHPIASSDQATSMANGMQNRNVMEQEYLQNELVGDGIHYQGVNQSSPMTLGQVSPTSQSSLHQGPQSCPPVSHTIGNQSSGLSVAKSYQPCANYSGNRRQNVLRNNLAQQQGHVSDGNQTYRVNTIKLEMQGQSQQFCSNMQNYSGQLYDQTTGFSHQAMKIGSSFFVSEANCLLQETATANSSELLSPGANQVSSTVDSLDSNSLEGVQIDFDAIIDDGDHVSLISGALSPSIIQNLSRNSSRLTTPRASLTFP
UniProt Q61602: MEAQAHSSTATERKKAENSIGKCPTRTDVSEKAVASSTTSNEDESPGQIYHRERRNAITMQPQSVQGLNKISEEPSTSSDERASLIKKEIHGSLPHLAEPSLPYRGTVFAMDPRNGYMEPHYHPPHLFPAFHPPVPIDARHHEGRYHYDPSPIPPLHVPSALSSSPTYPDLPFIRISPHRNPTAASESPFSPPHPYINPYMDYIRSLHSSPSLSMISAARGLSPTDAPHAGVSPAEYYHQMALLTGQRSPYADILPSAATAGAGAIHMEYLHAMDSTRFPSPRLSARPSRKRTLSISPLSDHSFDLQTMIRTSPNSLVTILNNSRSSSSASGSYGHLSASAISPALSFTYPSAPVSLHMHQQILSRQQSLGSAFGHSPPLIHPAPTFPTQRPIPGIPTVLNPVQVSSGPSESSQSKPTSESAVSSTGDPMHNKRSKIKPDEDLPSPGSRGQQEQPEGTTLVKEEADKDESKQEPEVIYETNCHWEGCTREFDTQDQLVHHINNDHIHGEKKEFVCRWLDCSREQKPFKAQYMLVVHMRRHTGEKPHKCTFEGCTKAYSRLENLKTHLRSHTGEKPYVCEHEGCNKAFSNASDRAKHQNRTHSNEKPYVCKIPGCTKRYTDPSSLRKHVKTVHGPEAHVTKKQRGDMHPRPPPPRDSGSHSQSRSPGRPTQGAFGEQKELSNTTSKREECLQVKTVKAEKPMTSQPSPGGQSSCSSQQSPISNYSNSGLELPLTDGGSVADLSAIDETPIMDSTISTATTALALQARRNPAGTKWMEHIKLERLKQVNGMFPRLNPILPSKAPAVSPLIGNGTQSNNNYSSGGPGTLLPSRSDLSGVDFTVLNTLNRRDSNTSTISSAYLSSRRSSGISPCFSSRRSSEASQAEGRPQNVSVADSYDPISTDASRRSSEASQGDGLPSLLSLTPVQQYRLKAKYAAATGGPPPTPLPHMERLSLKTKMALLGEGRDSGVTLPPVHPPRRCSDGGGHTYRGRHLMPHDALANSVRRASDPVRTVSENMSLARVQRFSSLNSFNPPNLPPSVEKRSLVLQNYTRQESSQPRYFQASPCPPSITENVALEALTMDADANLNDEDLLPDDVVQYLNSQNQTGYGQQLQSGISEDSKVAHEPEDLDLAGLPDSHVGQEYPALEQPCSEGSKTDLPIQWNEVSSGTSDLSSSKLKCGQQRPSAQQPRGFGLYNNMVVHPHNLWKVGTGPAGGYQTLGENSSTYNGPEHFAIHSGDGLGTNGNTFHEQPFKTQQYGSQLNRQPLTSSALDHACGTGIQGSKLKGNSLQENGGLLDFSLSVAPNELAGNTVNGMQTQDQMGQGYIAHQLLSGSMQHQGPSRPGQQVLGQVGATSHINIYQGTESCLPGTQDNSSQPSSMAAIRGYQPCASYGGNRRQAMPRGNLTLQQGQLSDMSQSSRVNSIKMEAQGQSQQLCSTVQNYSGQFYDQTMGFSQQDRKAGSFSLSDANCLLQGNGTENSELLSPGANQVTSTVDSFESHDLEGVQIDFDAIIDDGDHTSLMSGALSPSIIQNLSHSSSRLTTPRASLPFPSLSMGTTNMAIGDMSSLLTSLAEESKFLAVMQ

In assay [2] the target is T2, chick Cdh7 (cadherin-7), transiently expressed in NIH3T3 cells (chick) (UniProt Q90763).
T2 sequence: T1 sequence
Put plainly: co-IP; NIH3T3 cells transiently expressing Cdh7, cultured without or with the indicated doses of rN-Shh; pull-down with anti-Cdh7 mAb; blots for Gli3FL, Sufu, Gli3R, GSK3β.

For 3 molecules, binding results are on record in paper PMC5746549.

Results are given in words; binding and its absence hold for the method and conditions named. Binding seen in cells or lysates may run through a third protein. Some entries that bind do so weakly or less than the wild type. For part of these data: Sequences can lack the tags named with a protein.

Regarding “endogenous Gli3FL of chick embryonic spinal cord (from UniProt Q9IA31 1-1544)”, in assay [1], the binding entry is “binds”.
For the molecule “Gli3FL (full-length Gli3) of NIH3T3 cells (from UniProt Q61602 1-1583)”, the binding result in assay [2] is “binds”.

B1: suppressor-of-fused (Sufu) of NIH3T3 cells (protein, UniProt Q9Z0P7 1-484)
chain: MAELRPSVAPGPAAPPASGPSAPPAFASLFPPGLHAIYGECRRLYPDQPNPLQVTAIVKYWLGGPDPLDYVSMYRNMGSPSANIPEHWHYISFGLSDLYGDNRVHEFTGTDGPSGFGFELTFRLKRETGESAPPTWPAELMQGLARYVFQSENTFCSGDHVSWHSPLDNSESRIQHMLLTEDPQMQPVRTPFGVVTFLQIVGVCTEELHSAQQWNGQGILELLRTVPIAGGPWLITDMRRGETIFEIDPHLQERVDKGIETDGSNLSGVSAKCAWDDLSRPPEDEEDSRSICLGTQPRRLSGKDTEQIRETLRRGLEINSKPVLPPINSQRQNGLTHDRAPSRKDSLGSDSSTAIIPHELIRTRQLESVHLKFNQESGALIPLCLRGRLLHGRHFTYKSITGDMAITFVSTGVEGAFATEEHPYAAHGPWLQILLTEEFVEKMLEDLEDLTSPEEFKLPKEYSWPEKKLKVSILPDVVFDSPLH
Turning to B1, the binding result in assay [2] was “binds”.
